The values below come from US20250059285A1.

The target of the assay is T1, human Gal10-His (human) (UniProt Q05315).
T1 sequence: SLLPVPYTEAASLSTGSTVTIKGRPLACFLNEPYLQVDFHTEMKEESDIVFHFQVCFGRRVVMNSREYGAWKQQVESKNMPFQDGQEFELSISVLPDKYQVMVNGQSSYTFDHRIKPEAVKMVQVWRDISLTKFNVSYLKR
Nature of the assay: SPR (Biacore 3000): % relative activity of stressed Fab samples against a titration curve of the T0 reference (-80°C). Binding is to Gal10.

No constants are given. Whether binding was seen depends on the method and setting. Some results given as binding are weak or reduced against the parent protein; the word gives no strength. Sequences can lack the tags named with a protein.

B1: g7B07_N53A (human Fab) (Fab, V domains shown)
VH: EVQLLESGGGLVQPGGSLRLSCAASGFTFRSYDMSWVRQAPGKGLEWVSAIKAGGGITYYADSVKGRFTISRDNSKNTLYLQMNSLRAEDTAVYYCATTHGIGTLGFGSWGQGTLVTVSS
VL: SYELTQPLSVSVALGQTARITCDGNNIGSKSAQWYQQKPGQAPVLVIYADEYRPEGIPERFSGSNSGNTATLTISRAQAGDEADYYCQVWDGSAAVFGGGTQLTVL
Consider B1, for which the binding result is on record as “binds”.
